Assay results as given in patent US7323260B2, “Lubricant, recording medium and carboxylic acid compound” (Sony Corporation, priority 2003, dated 2008).

Assays:
[1] = Shuttle durability of sample tape: playback output change after 100 runs on AIT2 deck; conditions: difference between initial output and playback output after 100 runs; for Shuttle durability (dB) (−5° C.): 20% RH
[2] = Corrosion resistance: magnetic deterioration rate after storage in corrosive gas environment; conditions: 5 hours, 35° C., 70% RH, 2 ppm H2S and 1 ppm HCl; Tables 17 and 18
[3] = Corrosion resistance: magnetic deterioration rate after storage in high-temperature, high-humidity environment; conditions: one week at 60° C. and 80% RH; Tables 17 and 18
[4] = Friction coefficient of sample tape coated with the lubricant, after 1000 runs; conditions: 1 mg/m^2 on carbon film layer

Compound	Shuttle durability (dB) (40° C., 20% RH) [1]	Shuttle durability (dB) (−5° C.) [1]	Corrosive gas environment (magnetic deterioration rate) [2]	High-temperature, high-humidity environment (magnetic deterioration rate) [3]	Friction coefficient (40° C., 80% RH) [4]
CCCCCCCCCCCCC(CC(=O)OCCC(F)(F)C(F)(F)C(F)(F)C(F)(F)C(F)(F)C(F)(F)C(F)(F)C(F)(F)F)C(=O)OC(CC(=O)O)C(=O)O (stereo not drawn) [Example 29, CF3(CF2)7(CH2)2OCOCH2CH(C12H25)COOCH(COOH)CH2COOH]	−1.0	−0.8	⊙ (magnetic deterioration rate is 1% or less)	⊙ (magnetic deterioration rate is 1% or less)	0.25
CCCCCCCCC(CC(=O)OCCC(F)(F)C(F)(F)C(F)(F)C(F)(F)C(F)(F)C(F)(F)C(F)(F)C(F)(F)F)C(=O)OC(CC(=O)O)C(=O)O (stereo not drawn) [Example 30, CF3(CF2)7(CH2)2OCOCH2CH(C8H17)COOCH(COOH)CH2COOH]	−1.5	−1.0	⊙ (magnetic deterioration rate is 1% or less)	◯ (magnetic deterioration rate is 3% or less)	0.27
CCCCCCCCCCCCCCCCCCC(CC(=O)OCCC(F)(F)C(F)(F)C(F)(F)C(F)(F)C(F)(F)C(F)(F)C(F)(F)C(F)(F)C(F)(F)C(F)(F)F)C(=O)OC(CC(=O)O)C(=O)O (stereo not drawn) [Example 31, CF3(CF2)9(CH2)2OCOCH2CH(C18H37)COOCH(COOH)CH2COOH]	−0.8	−1.0	⊙ (magnetic deterioration rate is 1% or less)	⊙ (magnetic deterioration rate is 1% or less)	0.22
CCCCCCCCCCCCCCCCCCC(CC(=O)OCCC(F)(F)C(F)(F)C(F)(F)C(F)(F)F)C(=O)OC(CC(=O)O)C(=O)O (stereo not drawn) [Example 32, CF3(CF2)3(CH2)2OCOCH2CH(C18H37)COOCH(COOH)CH2COOH]	−1.0	−0.5	⊙ (magnetic deterioration rate is 1% or less)	◯ (magnetic deterioration rate is 3% or less)	0.25
CCCCCCCCCCCCCCCCCCC(CC(=O)OCCCCCCC(F)(F)C(F)(F)C(F)(F)C(F)(F)C(F)(F)C(F)(F)C(F)(F)C(F)(F)F)C(=O)OC(CC(=O)O)C(=O)O (stereo not drawn) [Example 33, CF3(CF2)7(CH2)6OCOCH2CH(C18H37)COOCH(COOH)CH2COOH]	−1.0	−0.5	⊙ (magnetic deterioration rate is 1% or less)	⊙ (magnetic deterioration rate is 1% or less)	0.22
CCCCCCCCCCCCCCCCCCC(CC(=O)OCCCCCCCCCCCC(F)(F)C(F)(F)C(F)(F)C(F)(F)C(F)(F)C(F)(F)C(F)(F)C(F)(F)F)C(=O)OC(CC(=O)O)C(=O)O (stereo not drawn) [Example 34, CF3(CF2)7(CH2)11OCOCH2CH(C18H37)COOCH(COOH)CH2COOH]	−0.8	−0.5	⊙ (magnetic deterioration rate is 1% or less)	⊙ (magnetic deterioration rate is 1% or less)	0.20
CCCCCCCCCC(CCCCCCC)C(CC(=O)OCCC(F)(F)C(F)(F)C(F)(F)C(F)(F)C(F)(F)C(F)(F)C(F)(F)C(F)(F)F)C(=O)OC(CC(=O)O)C(=O)O (stereo not drawn) [Example 36, CF3(CF2)7(CH2)2OCOCH2CH(CH(C7H15)(C9H19)COOCH(COOH)CH2COOH]	−1.0	−1.0	⊙ (magnetic deterioration rate is 1% or less)	◯ (magnetic deterioration rate is 3% or less)	0.23
CCCCCCCCCCCCCCCCCCC(CC(=O)OCCCCCCCC(CC(CCCCC)C(F)(F)C(F)(F)C(F)(F)C(F)(F)C(F)(F)C(F)(F)C(F)(F)C(F)(F)C(F)(F)C(F)(F)F)C(F)(F)C(F)(F)C(F)(F)C(F)(F)C(F)(F)C(F)(F)C(F)(F)C(F)(F)C(F)(F)C(F)(F)F)C(CC(=O)O)C(=O)O (stereo not drawn) [Example 37, CH3(CH2)3(CH2CH((CF2)9CF3))2(CH2)7OCOCH2CH(C18H37)CH(COOH)CH2COOH]	−1.0	−1.0	⊙ (magnetic deterioration rate is 1% or less)	⊙ (magnetic deterioration rate is 1% or less)	0.21
CF3(CF2)7(CH2)2OCOCH2CH(C18H35)COOCH(COOH)CH2COOH [Example 35]	−1.0	−1.0	⊙ (magnetic deterioration rate is 1% or less)	⊙ (magnetic deterioration rate is 1% or less)	0.24
